Where “and” joins values, the source holds several entries; their conditions need not be identical. Equal values may be shown once. Where a name gives a salt, the structure may show the parent alone. Some of the results follow. Repeats in this data set agree poorly, so a single value says little.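 HEK293T cells were given each compound shortly before transfection with a reporter in which red mCherry is followed by the SARS-CoV-2 frameshift element and then GFP in the −1 frame, so GFP appears only after frameshifting.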

For the test, the system named is HEK293T. Nature of the test: percent viability (nuclei count) relative to control; higher = more viable cells. To be noted: 10 µM; 24 h.
In the case of `CSc1ccc(C(=O)c2[nH]c(=O)[nH]c2C)cc1` [enoximone], the percent viability worked out at 216%.
For `CC[C@@H](NC(C)C)[C@@H](O)c1ccc(O)c2[nH]c(=O)ccc12` [Procaterol·HCl], the percent viability turned out to be 300%.
As for `CC[C@H]1OC(=O)[C@H](C)C(=O)[C@H](C)[C@@H](O[C@@H]2O[C@H](C)C[C@H](N(C)C)[C@H]2O)[C@](C)(OC)C[C@@H](C)C(=O)[C@H](C)[C@H]2N(CCCCn3cnc(-c4cccnc4)c3)C(=O)O[C@]12C` [Ketek], the figure is 317%; as for `CCCCC(C(=O)O)C(=O)N(Nc1ccccc1)c1ccccc1` (stereo not given) [bumadizone], 224%.
Regarding `CCN1CCC[C@H]1CNC(=O)c1c(O)c(Cl)cc(Cl)c1OC` [S(-)-Raclopride], the percent viability is 254%.
As to `CC1=C(C/C=C(\C)CCC[C@H](C)CCC[C@H](C)CCCC(C)C)C(=O)c2ccccc2C1=O` [phytomenadione], the percent viability was found to be 86.5%.
As for `CC(C)[C@H]1CC[C@H](C(=O)N[C@H](Cc2ccccc2)C(=O)O)CC1`, the percent viability was 116%.
As to `CC(=O)Oc1ccccc1C(=O)Nc1ncc([N+](=O)[O-])s1` [nitazoxanide], the percent viability came out at 463%.
`N=c1ccn2c(n1)O[C@H]1[C@H](O)[C@@H](CO)O[C@H]12` [ancitabine]: the percent viability was 301% and 193%.
The result for `C=CCNC(N)=S` [allylthiourea] reads 212%.
The result for `CC(C)c1ccccc1` [Sucralfate] reads 331%.
On to `C=C[C@]1(C)C[C@@H](OC(=O)CSCCN(CC)CC)[C@]2(C)[C@H](C)CC[C@]3(CCC(=O)[C@H]32)[C@@H](C)[C@@H]1O` [tiamulin], for which the percent viability worked out at 89.6%.
`Cc1ncc(C[n+]2csc(CCOP(=O)(O)O)c2C)c(N)n1` [monophosphothiamine]: the percent viability stood at 260%.
Take `CCNC(=O)[C@@H]1CCCN1C(=O)[C@H](CCCNC(=N)N)NC(=O)[C@H](CC(C)C)NC(=O)[C@@H](COC(C)(C)C)NC(=O)[C@H](Cc1ccc(O)cc1)NC(=O)[C@H](CO)NC(=O)[C@H](Cc1c[nH]c2ccccc12)NC(=O)[C@H](Cc1cnc[nH]1)NC(=O)[C@@H]1CCC(=O)N1` [buserelin]: the percent viability was 142%.
Turning to `CC(C)(Oc1ccc(C2CC2(Cl)Cl)cc1)C(=O)O` (stereo not given) [ciprofibrate], the percent viability turned out to be 197%.
On to `CCCNC(C)C(=O)Nc1c(C)csc1C(=O)OC` (stereo not given) [Articaine], for which the percent viability came to 302%.
`CC(=O)Oc1c(C)cc(OCC(O)CNC(C)C)c(C)c1C` (stereo not given) [metipranolol]: the percent viability was determined as 285%.
As for `O=C(O)c1cc(=O)c2ccccc2o1` [chromocarb], the percent viability was found to be 41.5%.
For `C[C@]12CC[C@@H]3c4ccc(O)cc4CC[C@H]3[C@@H]1CC[C@@H]2OC(=O)CCC1CCCC1`, the percent viability was 141%.
Regarding `CCCNC(=O)NS(=O)(=O)c1ccc(Cl)cc1` [chlorpropamide], the percent viability was 106%.
`C[C@@H](O[C@H]1OCCN(Cc2n[nH]c(=O)[nH]2)[C@H]1c1ccc(F)cc1)c1cc(C(F)(F)F)cc(C(F)(F)F)c1` [Aprepitant]: the percent viability is 158% and 264%.
In the case of `O=c1[nH]c2cc(Cl)c(Cl)c([N+](=O)[O-])c2[nH]c1=O` [licostinel], the percent viability was 174%.
Regarding `CC1=C(C(=O)O)N2C(=O)[C@@H](NC(=O)[C@H](N)C3=CCC=CC3)[C@H]2SC1`, the percent viability turned out to be 185%.
Regarding `CCCCCOC(=O)Nc1nc(=O)n([C@@H]2O[C@H](C)[C@@H](O)[C@H]2O)cc1F` [capecitabine], the percent viability was 279% and 244%.
For the compound `CCN(CC)CCCC(C)Nc1ccnc2cc(Cl)ccc12` (stereo not given), the percent viability came to 221%.
Consider `O=C(O)COCCN1CCN(C(c2ccccc2)c2ccc(Cl)cc2)CC1` (stereo not given) [cetirizine], for which the percent viability is 130% and 235% and 298%.
The result for `CCCc1c(SCCCOc2ccc(C(C)=O)c(OCCCC(=O)O)c2CCC)ccc(C(C)=O)c1O` [tipelukast] reads 152%; that for `CCCCCCCCCCCCCCCCOP(=O)([O-])OCC[N+](C)(C)C` [miltefosine], 250% and 324%.
For `CCOCC(O)COc1ccc(NC(=O)CC[S+](C)C)cc1` (stereo not given) [suplatast tosilate], the percent viability was 226%.
For `CCC(=O)OCC(=O)[C@@]1(OC(=O)CC)[C@@H](C)C[C@H]2[C@@H]3CCC4=CC(=O)C=C[C@]4(C)[C@@]3(F)[C@@H](O)C[C@@]21C`, the percent viability amounted to 185%.
Consider `NC1CCN(c2nc3c(cc2F)c(=O)c(C(=O)O)cn3-c2ccc(F)cc2F)C1` (stereo not given) [tosufloxacin], for which the percent viability is 94.7%.
With `CC(=O)OCC1=C(C(=O)O)N2C(=O)[C@@H](NC(=O)[C@H](N)c3ccccc3)[C@H]2SC1` [cefaloglycin], the percent viability amounted to 160%.
Take `N=C(N)NCCC[C@H](N)C(=O)O` [arginine]: the percent viability is 180% and 252%.
`Nc1nc(O)c2ncn(CCC(CO)CO)c2n1` [Penciclovir]: the percent viability came to 259%.
For the compound `COc1ccc(-n2nc(C(N)=O)c3c2C(=O)N(c2ccc(N4CCCCC4=O)cc2)CC3)cc1` [apixaban], the percent viability was 198%.
Turning to `Cc1[nH]c(=O)c(C#N)cc1-c1ccncc1` [milrinone], the percent viability was 168% and 234%.
`C(=C\c1ccccc1)/CN1CCN(C(c2ccccc2)c2ccccc2)CC1`: the percent viability was determined as 329%.
On to `C[N+]1(C)CCC(OC(=O)C(O)(c2ccccc2)C2CCCC2)C1` (stereo not given) [glycopyrronium bromide], for which the percent viability amounted to 138%.
Turning to `CC(C)C[C@H](NC(=O)[C@@H](O)[C@H](N)Cc1ccccc1)C(=O)O` [ubenimex], the percent viability was 229%.
In the case of `CN(C)CCCN1c2ccccc2Sc2ccc(Cl)cc21` [chlorpromazine], the percent viability is 156% and 416%.

(Values after the supplement of paper PMC8256030.)
